Experimental data from publication PMC8917351.
These are yes or no findings as the source states them, for the method shown. Binding seen in cells or lysates may run through a third protein. A yes stands for co-enrichment or nearness to the bait. Other partners may have been found. No binding means not detected with the bait. Each block holds one molecule with its values, some of them ahead of it.

Protein sequences, listed by entry. Tags and fused reporters are not part of them.
UniProt P30260: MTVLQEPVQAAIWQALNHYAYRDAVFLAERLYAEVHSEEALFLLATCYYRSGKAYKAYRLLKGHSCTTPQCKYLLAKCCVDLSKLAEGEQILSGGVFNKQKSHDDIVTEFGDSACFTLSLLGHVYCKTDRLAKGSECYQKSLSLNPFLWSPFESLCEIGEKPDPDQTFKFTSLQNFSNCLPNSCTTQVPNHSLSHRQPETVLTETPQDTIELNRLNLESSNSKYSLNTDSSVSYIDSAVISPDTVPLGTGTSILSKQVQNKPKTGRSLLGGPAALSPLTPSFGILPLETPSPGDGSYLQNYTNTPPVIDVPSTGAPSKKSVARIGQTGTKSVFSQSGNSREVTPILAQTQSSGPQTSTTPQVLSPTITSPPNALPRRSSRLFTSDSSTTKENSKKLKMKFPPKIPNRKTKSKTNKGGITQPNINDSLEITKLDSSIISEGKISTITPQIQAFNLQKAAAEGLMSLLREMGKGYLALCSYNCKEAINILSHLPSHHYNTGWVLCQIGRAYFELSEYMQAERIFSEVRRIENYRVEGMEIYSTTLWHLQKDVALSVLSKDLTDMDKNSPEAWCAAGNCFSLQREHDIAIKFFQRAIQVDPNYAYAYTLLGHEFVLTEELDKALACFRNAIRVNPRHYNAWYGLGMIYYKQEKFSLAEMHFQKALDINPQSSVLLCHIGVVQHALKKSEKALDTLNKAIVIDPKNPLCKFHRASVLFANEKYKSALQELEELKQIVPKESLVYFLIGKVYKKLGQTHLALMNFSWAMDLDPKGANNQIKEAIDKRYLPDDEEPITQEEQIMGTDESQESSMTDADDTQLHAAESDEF
UniProt Q9UJX6: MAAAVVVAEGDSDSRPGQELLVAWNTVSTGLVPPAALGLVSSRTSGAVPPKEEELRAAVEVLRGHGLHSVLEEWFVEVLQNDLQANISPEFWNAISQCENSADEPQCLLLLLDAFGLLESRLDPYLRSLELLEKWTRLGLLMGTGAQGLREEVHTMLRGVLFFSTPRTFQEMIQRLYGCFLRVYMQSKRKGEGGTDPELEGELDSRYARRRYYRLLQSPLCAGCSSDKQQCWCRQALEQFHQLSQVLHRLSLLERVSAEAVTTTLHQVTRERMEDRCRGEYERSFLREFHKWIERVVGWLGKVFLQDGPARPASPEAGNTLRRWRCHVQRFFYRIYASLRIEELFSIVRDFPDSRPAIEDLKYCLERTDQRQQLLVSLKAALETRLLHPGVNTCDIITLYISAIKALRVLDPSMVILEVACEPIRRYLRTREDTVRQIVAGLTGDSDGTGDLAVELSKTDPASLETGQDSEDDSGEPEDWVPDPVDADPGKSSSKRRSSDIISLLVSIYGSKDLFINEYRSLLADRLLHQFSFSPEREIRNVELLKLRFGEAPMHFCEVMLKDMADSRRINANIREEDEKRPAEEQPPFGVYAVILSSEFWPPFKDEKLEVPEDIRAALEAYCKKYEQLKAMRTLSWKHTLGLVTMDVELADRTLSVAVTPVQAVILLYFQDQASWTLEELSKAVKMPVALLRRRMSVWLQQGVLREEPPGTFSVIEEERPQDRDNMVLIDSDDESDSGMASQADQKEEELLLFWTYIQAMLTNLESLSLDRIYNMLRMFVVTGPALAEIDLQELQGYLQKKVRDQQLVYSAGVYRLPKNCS
UniProt O94986: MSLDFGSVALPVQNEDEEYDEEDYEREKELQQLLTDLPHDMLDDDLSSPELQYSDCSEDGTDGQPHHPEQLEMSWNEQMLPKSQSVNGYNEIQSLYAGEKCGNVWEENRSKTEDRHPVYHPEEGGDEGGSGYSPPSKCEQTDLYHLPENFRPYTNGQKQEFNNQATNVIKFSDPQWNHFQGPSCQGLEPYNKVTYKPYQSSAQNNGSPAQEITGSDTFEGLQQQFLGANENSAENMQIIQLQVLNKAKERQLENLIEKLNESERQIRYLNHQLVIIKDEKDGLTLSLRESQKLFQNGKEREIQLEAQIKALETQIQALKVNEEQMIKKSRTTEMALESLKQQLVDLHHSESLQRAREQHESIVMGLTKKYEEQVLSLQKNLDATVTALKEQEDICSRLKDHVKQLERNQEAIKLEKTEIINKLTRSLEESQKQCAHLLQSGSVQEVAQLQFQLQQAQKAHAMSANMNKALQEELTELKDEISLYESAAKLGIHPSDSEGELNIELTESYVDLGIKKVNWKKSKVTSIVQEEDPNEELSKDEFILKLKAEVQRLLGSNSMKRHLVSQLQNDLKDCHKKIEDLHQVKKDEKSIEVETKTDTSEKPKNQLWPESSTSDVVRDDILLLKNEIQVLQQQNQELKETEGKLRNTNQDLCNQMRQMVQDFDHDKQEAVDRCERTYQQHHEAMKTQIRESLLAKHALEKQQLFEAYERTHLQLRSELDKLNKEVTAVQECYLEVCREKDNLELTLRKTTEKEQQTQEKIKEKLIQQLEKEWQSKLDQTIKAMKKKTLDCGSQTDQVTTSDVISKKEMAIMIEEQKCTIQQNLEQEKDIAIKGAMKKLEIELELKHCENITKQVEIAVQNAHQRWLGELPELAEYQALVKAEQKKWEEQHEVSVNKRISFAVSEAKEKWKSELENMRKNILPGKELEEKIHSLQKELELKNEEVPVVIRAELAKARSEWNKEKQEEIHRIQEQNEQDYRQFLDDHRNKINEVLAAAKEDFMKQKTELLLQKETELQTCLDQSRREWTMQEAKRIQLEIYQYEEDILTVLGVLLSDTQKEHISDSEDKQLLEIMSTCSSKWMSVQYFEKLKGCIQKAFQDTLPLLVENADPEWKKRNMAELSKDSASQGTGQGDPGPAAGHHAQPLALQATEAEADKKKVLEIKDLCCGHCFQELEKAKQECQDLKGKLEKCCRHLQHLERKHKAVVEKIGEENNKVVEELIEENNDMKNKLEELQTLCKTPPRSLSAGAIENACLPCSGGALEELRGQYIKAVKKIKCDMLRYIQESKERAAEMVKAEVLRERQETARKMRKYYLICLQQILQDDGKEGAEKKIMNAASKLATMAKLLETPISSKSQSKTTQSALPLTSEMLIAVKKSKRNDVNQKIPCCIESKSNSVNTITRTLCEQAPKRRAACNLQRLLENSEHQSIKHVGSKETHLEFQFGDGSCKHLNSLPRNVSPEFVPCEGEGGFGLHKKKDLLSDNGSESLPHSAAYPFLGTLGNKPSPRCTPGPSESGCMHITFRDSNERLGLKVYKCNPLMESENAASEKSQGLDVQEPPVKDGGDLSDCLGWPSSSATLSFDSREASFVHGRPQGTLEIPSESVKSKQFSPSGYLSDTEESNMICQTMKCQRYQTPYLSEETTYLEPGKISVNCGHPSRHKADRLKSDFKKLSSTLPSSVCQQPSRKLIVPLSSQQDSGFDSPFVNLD
UniProt Q5VT06: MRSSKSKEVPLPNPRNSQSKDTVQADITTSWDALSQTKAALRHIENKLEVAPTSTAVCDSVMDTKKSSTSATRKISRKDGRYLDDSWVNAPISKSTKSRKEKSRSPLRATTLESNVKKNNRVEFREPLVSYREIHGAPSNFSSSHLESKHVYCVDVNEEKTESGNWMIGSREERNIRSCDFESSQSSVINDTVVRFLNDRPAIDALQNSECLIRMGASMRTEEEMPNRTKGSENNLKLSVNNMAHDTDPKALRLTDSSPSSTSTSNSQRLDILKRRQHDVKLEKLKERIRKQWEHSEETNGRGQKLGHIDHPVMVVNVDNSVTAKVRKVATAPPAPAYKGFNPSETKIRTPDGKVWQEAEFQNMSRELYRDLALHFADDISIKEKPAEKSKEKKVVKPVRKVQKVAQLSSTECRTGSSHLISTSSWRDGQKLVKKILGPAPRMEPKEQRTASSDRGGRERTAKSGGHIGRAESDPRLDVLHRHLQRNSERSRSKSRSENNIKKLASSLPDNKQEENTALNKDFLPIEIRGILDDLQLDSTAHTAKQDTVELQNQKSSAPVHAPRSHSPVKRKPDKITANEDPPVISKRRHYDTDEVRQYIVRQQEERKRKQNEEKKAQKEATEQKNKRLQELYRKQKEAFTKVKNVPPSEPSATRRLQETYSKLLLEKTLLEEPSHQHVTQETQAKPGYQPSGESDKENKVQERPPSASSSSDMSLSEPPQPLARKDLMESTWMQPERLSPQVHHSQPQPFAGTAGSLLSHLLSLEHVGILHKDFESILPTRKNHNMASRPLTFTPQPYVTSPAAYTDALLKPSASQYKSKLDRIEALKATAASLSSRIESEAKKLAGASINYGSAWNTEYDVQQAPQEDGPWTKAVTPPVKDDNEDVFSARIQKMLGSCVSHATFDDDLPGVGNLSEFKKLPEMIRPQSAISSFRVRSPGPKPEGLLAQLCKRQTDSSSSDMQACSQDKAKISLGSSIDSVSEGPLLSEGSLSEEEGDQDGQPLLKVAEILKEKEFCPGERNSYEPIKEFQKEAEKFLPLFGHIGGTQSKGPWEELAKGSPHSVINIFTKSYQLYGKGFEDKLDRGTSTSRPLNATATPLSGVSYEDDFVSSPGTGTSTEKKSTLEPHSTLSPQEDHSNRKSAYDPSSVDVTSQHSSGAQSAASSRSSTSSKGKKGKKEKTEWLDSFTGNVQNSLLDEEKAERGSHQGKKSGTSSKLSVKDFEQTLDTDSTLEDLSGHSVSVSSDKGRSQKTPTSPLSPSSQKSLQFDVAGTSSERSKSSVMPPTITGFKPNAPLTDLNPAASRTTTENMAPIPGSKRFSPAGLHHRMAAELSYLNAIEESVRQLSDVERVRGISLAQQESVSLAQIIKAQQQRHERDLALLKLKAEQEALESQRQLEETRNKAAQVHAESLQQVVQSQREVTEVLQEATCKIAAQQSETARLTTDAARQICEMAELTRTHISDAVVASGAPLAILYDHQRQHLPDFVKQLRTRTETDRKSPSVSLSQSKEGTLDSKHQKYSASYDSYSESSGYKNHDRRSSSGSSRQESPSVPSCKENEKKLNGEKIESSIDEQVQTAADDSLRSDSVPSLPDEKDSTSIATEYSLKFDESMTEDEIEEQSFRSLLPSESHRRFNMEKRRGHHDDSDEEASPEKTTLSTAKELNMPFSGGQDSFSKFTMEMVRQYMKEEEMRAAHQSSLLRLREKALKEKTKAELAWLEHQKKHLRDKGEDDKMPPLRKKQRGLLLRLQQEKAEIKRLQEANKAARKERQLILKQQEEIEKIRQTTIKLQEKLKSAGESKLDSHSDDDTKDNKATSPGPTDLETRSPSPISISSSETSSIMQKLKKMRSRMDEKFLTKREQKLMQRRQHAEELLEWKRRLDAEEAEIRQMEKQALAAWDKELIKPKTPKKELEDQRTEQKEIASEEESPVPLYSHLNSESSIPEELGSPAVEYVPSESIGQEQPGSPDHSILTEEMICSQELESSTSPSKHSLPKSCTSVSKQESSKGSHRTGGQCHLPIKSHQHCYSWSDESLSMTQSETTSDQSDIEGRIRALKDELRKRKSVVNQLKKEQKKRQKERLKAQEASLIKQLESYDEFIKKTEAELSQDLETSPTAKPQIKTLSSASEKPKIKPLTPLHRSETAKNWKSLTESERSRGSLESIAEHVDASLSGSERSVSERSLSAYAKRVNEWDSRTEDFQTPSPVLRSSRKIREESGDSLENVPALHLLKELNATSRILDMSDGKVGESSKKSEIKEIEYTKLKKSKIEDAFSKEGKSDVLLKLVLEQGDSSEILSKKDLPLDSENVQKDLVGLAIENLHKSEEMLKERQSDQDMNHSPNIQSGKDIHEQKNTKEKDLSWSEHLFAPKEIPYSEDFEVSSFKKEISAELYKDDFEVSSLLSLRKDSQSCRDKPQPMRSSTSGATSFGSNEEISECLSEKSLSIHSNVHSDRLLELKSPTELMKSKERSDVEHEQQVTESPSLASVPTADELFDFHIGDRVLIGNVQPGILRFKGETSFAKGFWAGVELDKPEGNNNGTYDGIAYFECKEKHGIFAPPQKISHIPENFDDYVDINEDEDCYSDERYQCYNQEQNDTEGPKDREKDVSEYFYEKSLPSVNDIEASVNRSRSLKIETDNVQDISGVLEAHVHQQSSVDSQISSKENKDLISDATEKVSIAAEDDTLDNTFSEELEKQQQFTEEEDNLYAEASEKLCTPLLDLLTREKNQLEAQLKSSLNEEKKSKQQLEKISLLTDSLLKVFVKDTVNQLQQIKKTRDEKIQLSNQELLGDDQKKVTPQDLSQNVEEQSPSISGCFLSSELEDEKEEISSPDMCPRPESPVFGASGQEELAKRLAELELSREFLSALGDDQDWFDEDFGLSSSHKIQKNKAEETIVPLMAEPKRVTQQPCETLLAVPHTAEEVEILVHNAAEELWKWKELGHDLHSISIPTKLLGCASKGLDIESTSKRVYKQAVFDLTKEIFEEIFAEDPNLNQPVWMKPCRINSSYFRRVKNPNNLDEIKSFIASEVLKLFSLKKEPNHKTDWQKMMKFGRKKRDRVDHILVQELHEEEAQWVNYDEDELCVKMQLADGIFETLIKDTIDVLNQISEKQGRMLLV

Columns and labels:
APC3–BioID2 = APC3–BioID2 (UniProt P30260); experiment: proximity labelling; BioID2–APC2 or APC3–BioID2 HEK293 cell lines, 50 µM biotin for 24 h; mitotic centrosomes purified on a sucrose gradient, sonified, streptavidin beads overnight, washes with 2% SDS and 500 mM NaCl; mass spectrometry with label-free quantification, three independent repeats
BioID2–APC2 = BioID2–APC2 (UniProt Q9UJX6); experiment: as above

Molecule: Cep152 (from UniProt O94986 1-1710)
binding (APC3–BioID2): binds | binding (BioID2–APC2): binds

Molecule: Cep192 (from UniProt Q8TEP8 1-2537)
binding (APC3–BioID2): binds | binding (BioID2–APC2): binds

B1: Cep131 (protein, UniProt Q9UPN4 1-1083)
chain: MKGTRAIGSVPERSPAGVDLSLTGLPPPVSRRPGSAATTKPIVRSVSVVTGSEQKRKVLEATGPGGSQAINNLRRSNSTTQVSQPRSGSPRPTEPTDFLMLFEGSPSGKKRPASLSTAPSEKGATWNVLDDQPRGFTLPSNARSSSALDSPAGPRRKECTVALAPNFTANNRSNKGAVGNCVTTMVHNRYTPSERAPPLKSSNQTAPSLNNIIKAATCEGSESSGFGKLPKNVSSATHSARNNTGGSTGLPRRKEVTEEEAERFIHQVNQATVTIQRWYRHQVQRRGAGAARLEHLLQAKREEQRQRSGEGTLLDLHQQKEAARRKAREEKARQARRAAIQELQQKRALRAQKASTAERGPPENPRETRVPGMRQPAQELSPTPGGTAHQALKANNTGGGLPAAGPGDRCLPTSDSSPEPQQPPEDRTQDVLAQDAAGDNLEMMAPSRGSAKSRGPLEELLHTLQLLEKEPDVLPRPRTHHRGRYAWASEVTTEDDASSLTADNLEKFGKLSAFPEPPEDGTLLSEAKLQSIMSFLDEMEKSGQDQLDSQQEGWVPEAGPGPLELGSEVSTSVMRLKLEVEEKKQAMLLLQRALAQQRDLTARRVKETEKALSRQLQRQREHYEATIQRHLAFIDQLIEDKKVLSEKCEAVVAELKQEDQRCTERVAQAQAQHELEIKKLKELMSATEKARREKWISEKTKKIKEVTVRGLEPEIQKLIARHKQEVRRLKSLHEAELLQSDERASQRCLRQAEELREQLEREKEALGQQERERARQRFQQHLEQEQWALQQQRQRLYSEVAEERERLGQQAARQRAELEELRQQLEESSSALTRALRAEFEKGREEQERRHQMELNTLKQQLELERQAWEAGRTRKEEAWLLNREQELREEIRKGRDKEIELVIHRLEADMALAKEESEKAAESRIKRLRDKYEAELSELEQSERKLQERCSELKGQLGEAEGENLRLQGLVRQKERALEDAQAVNEQLSSERSNLAQVIRQEFEDRLAASEEETRQAKAELATLQARQQLELEEVHRRVKTALARKEEAVSSLRTQHEAAVKRADHLEELLEQHRRPTPSTK
binding (APC3–BioID2): binds | binding (BioID2–APC2): binds

Next, values leading:

binding (APC3–BioID2): binds | binding (BioID2–APC2): binds
Molecule: Cep350 (from UniProt Q5VT06 1-3117)

binding (APC3–BioID2): no binding | binding (BioID2–APC2): no binding
Molecule: PCM1 (from UniProt Q15154 1-2024)
